From PMC3882260
No constants are given. Whether binding was seen depends on the method and setting.

Target: T1, Nogo receptor (NgR) (UniProt Q9BZR6)
T1 sequence: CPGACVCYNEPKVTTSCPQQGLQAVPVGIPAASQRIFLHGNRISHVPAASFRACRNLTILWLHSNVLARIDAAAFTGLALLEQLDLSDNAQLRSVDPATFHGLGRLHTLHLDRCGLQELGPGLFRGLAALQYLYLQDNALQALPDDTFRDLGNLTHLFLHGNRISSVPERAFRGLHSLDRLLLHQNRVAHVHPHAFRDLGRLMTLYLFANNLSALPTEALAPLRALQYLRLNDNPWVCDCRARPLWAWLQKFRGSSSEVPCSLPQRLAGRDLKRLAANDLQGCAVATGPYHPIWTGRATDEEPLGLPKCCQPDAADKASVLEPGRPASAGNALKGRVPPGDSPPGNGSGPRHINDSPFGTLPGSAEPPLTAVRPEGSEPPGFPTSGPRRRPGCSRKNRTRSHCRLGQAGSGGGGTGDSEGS
Experiment: alkaline phosphatase (AP) fusion protein binding to transfected cells; COS-7 cells transfected with DCC or NgR; 20 nM AP, CBLN4-AP or Nogo 66-AP from conditioned media, 90 min, room temperature, binding buffer with 2 µg/ml heparin; NBT/BCIP development

Alkaline Phasphatase (AP) (enzyme)
binding: no binding (tested: 20 nM)
